# For at least one compound, name, drawing or mass did not settle the structure.
# Assays:
# cells [1] = assay: Photobleaching in cells; assay type: cell-based; conditions: Table 4
# Description: Fluorescence microscopy. Fluorescence microscopy measurements were performed as described previously (Chao et al., 1989). Briefly, coverglasses were mounted in a 0.5 ml perfusion chamber in which the cell-free glass surface made contact with an oil immersion objective (Nikon ×40 magnification, numerical aperture[NA] 1.3). Cell fluorescence was excited at 365±10 nm (SPQ) or 420 nm±10 nm (LZQ and LMQ). Emitted fluorescence was detected by a photomultiplier in a Nikon inverted epifluorescence microscope using a 410 nm dichroic mirror and 420 nm barrier filter (SPQ) or a 455 nm dichroic mirror and 500 nm barrier filter (LZQ). For cells colabeled with SPQ and LZQ, SPQ fluorescence was excited at 365±10 nm and detected using a 410 nm dichroic mirror and 455±30 nm interference filter. Confocal fluorescence micrographs were obtained using a Nipkow wheel confocal microscope and cooled CCD camera detector using a ×60 oil immersion objective (Nikon, NA 1.4). LZQ-labeled cells were viewed using a fluorescein filter set (excitation 480±15 nm, emission 520±20 nm).
# A time course of LZQ fluorescence during perfusion with physiological saline at 23° C. was generated. A small group of 20-30 cells was illuminated continuously and fluorescence was detected by a photomultiplier using an ×40, 1.3 NA objective. Cellular fluorescence decreased slowly at a rate of 2.5% per hour. To determine the relative contributions of indicator leakage vs. photobleaching to the slow decline in fluorescence, the perfused cells were illuminated intermittently. […] Background fluorescence (in non-labeled cells) was generally <5% of the fluorescence of LZQ-labeled cells.
# [2] = Fluorescence spectra / optical properties; assay type: physicochemical; parameters: key to Brightness: ++++: very bright; +++: bright; ++: moderate brightness; +: weak; conditions: Table 4
# Description: (§1) Computations. In vitro fluorescence quenching studies were carried out at peak excitation and emission wavelengths. Microliter aliquots of the sodium salt of the quenching anion (1 M) were added to indicator solution in 5 mM sodium phosphate (pH 7.2, unless indicated otherwise). Fluorescence intensities in the absence (Fo) and presence (F) of quencher anion ([Q]) were measured to give the Stem-Volmer constant (Kq) as defined by:
# Fluorescence spectra reveal that LZQ and LMQ have broad excitation and emission peaks with maxima at 424 and 528 nm, respectively. The molar extinction coefficient of LZQ was 11,100 M^-1 cm^-1 at 424 nm and the quantum yield in the absence of I^- was 0.53. Stem-Volmer plots for quenching of LZQ and LMQ by I^- and Cl^-, with data for SPQ shown for comparison, were generated. In water (or saline), LZQ fluorescence was quenched by I^- with a Stem-Volmer constant of 60 M^-1. LZQ fluorescence was not quenched (Stem-Volmer constant <1 M^-1) by Cl^-, NO3^-, phosphate, acetate, Na^+ and K^+. LZQ fluorescence and I^- sensitivity were not affected by pH changes in the range 4.5-8.
# [3] = In vitro fluorescence quenching by I^- (Stern-Volmer); assay type: physicochemical; conditions: Table 4
# Description: as §1, with “by: Fo /F=1+Kq [Q].” for “by:”
# [4] = In vitro fluorescence quenching by Cl^- (Stern-Volmer); assay type: physicochemical
# Description: as §1, with “by: Fo /F=1+Kq [Q].” for “by:”
# [5] = cited from earlier work
# CFTR = assay: I^-/NO3^- exchange in forskolin-stimulated CFTR-expressing cells; assay type: cell-based
# Description: Transport measurements. Cells were labeled with LZQ or SPQ by hypotonic shock (loading buffer/water 1:1 containing 2 mM LZQ or 7.5 mM SPQ) for 5 min at room temperature or by overnight incubation with indicators in the cell culture medium. Extracellular indicator was removed by washing just prior to measurements. For fluorescence microscopy, glass coverslips were then mounted in a perfusion chamber (flow ~2 ml/min) in which solutions were exchanged using a 4-way valve. For microplate reader measurements, cells in 96-well plates were bathed in […] of the `1st buffer` (see Table 3) and […] of the Cl^- -containing, I^- -free solution was injected into the well to drive Cl^- /I^- exchange (protocol 1). For stimulation of CFTR using protocol 2, […] of a 1:8 mixture of the 1st buffer and the 2nd buffer containing […] forskolin, 2 mM CPT-cAMP and […] IBMX was added.
# For determination of the absolute I^- transport rates, the time course of intracellular [I^- ] was computed from the time course of SPQ or LZQ fluorescence using the modified Stem-Volmer equation [I^- ]={([Fo -Fb ]/[F-Fb ])-1}/KI, where Fo is fluorescence intensity in the absence of I^-, Fb is background fluorescence of unlabeled cells, and KI the intracellular quenching constant for I^- (see Results). I^- transport rates were calculated from the slope of a linear regression of the first 10 time points after changing perfusate composition.
# The utility of LZQ for functional measurement of CFTR expression was tested. […] A comparison of data obtained for cells loaded with LZQ and SPQ initially loaded with I^-, followed by replacement of I^- with NO3^- in the absence of forskolin, followed by addition of forskolin was also performed. The initial rates of forskolin-stimulated I^- efflux (SPQ: 0.09±0.02 mM/s; LZQ: 0.08±0.01 mM/s) were similar. Measurements of Cl^- /NO3^- exchange were also carried out by measuring SPQ fluorescence using cells labeled with SPQ alone vs. cells colabeled with SPQ and LZQ.
# [6] = Chao et al., 1989; cited from earlier work
# cells [7] = conditions: absence of Cl^-; Chao et al., 1989; cited from earlier work
Compound,Cellular properties: photobleaching (cells [1]),Brightness [2],λem (emission wavelength) [2] [nm],λex (excitation wavelength) [2] [nm],"Ksv (I^-), Stern Volmer quenching constant [3] [M⁻¹]",sensitivity to Cl^- [4],"quenching by Cl^- and I^-, mechanism ([5]; Illsley and Verkman, 1987)",emission wavelength ([5]; background),excitation wavelength ([5]; background),molar extinction ([5]; background) [M⁻¹ cm⁻¹],quantum yield ([5]; background),"initial rate of forskolin-stimulated I^- efflux (CFTR; I^- replaced by NO3^- without forskolin, then forskolin added) [mM/s]","computed I^- efflux rate (CFTR; forskolin-stimulated CFTR-expressing cells, I^-/NO3^- exchange) [mM/s]","computed I^- influx rate (CFTR; forskolin-stimulated CFTR-expressing cells, I^-/NO3^- exchange, S.E., n=3) [mM/s]","intracellular Stern-Volmer constant, quenching by Cl^- [6] [M⁻¹]",decrease of fluorescence lifetime in cells vs. water (cells [7])
"Nc1ccc2c(ccc[n+]2CCCS(=O)(=O)[O-])c1 [XI, 6-amino-1-(3-sulfopropyl) quinolinium]",rapid,+,545,396,240,–,–,–,–,–,–,–,–,–,–,–
"C[n+]1nc2ccccc2c2ccccc21 [Compound V, 1-methyl-benzo{c}cinnolinium]",rapidly,++,505,416,130,good sensitivity,–,–,–,–,–,–,–,–,–,–
"C[n+]1c2ccccc2nc2ccccc21 [Compound VI, 1-methyl-phenazinium]",rapidly,++,520,440,90,good sensitivity,–,–,–,–,–,–,–,–,–,–
"COc1ccc2c(ccc[n+]2CCCS(=O)(=O)[O-])c1 [SPQ, 6-methoxy-N-[3-sulfopropyl]quinolinium]",–,–,–,–,–,–,quenched by Cl^- and I^- by a collisional mechanism,420-460 nm,320-365 nm,< 6000,< 0.1,0.09 ± 0.02,0.08 ± 0.01,0.26 ± 0.03,12 to 18,8 -fold

# From patent publication US6201116A, “Halide indicators” (The Regents of the University of California, priority 1999, dated 2001)
